Experiment [1] deals with FLAG-tagged SRC-1 (wild type, mouse) (mouse) (UniProt P70365). Description: co-IP; HEK293T cells transfected with 3xFLAG-SRC-1 or 3xFLAG-TIF2 plasmids for 48 h; lysed in 20 mM HEPES-NaOH pH 7.5, 150 mM NaCl, 1.0% digitonin; anti-FLAG M2 affinity gel overnight at 4 °C; immunoblot of endogenous partners. Background: In western blotting, separated proteins are transferred to a membrane and probed.

Sequences of proteins named here, by UniProt entry; tags and fusion partners are left off.
UniProt P70365: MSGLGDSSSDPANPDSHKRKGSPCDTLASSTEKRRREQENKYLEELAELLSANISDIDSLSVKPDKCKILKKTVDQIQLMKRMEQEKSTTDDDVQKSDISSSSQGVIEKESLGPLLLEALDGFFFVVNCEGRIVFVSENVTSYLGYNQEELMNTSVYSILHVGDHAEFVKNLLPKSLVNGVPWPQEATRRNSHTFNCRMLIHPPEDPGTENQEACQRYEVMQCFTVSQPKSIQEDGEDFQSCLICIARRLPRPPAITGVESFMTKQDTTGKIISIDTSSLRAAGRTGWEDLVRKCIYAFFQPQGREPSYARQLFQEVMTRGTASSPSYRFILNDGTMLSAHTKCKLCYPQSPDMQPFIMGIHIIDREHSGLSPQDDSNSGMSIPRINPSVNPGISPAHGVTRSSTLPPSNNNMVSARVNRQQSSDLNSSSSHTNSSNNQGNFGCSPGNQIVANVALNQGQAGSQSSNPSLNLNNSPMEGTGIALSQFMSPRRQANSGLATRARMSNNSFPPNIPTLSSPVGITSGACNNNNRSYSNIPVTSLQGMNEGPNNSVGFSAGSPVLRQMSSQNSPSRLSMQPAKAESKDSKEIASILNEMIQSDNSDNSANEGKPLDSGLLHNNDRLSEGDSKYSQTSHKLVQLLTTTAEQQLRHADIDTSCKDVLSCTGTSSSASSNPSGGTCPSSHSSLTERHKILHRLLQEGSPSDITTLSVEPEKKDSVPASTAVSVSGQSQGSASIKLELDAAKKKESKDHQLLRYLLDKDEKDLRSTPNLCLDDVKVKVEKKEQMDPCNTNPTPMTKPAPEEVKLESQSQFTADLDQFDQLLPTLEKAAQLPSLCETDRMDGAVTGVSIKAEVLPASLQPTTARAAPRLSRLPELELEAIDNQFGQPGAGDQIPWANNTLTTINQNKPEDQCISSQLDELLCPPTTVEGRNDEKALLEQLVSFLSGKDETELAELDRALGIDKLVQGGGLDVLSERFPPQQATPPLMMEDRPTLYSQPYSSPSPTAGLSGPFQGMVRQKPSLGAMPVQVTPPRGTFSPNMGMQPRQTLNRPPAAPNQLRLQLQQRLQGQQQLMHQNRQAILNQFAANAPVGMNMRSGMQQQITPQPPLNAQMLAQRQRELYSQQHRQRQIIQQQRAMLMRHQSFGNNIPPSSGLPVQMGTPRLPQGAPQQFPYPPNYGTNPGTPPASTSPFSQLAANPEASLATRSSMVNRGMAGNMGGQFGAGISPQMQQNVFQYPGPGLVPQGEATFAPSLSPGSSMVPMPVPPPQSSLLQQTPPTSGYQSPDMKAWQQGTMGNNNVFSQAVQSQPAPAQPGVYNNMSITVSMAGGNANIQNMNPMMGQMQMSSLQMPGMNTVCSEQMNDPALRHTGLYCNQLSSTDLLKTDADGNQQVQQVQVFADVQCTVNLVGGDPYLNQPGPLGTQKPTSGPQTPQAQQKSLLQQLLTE
UniProt Q61026: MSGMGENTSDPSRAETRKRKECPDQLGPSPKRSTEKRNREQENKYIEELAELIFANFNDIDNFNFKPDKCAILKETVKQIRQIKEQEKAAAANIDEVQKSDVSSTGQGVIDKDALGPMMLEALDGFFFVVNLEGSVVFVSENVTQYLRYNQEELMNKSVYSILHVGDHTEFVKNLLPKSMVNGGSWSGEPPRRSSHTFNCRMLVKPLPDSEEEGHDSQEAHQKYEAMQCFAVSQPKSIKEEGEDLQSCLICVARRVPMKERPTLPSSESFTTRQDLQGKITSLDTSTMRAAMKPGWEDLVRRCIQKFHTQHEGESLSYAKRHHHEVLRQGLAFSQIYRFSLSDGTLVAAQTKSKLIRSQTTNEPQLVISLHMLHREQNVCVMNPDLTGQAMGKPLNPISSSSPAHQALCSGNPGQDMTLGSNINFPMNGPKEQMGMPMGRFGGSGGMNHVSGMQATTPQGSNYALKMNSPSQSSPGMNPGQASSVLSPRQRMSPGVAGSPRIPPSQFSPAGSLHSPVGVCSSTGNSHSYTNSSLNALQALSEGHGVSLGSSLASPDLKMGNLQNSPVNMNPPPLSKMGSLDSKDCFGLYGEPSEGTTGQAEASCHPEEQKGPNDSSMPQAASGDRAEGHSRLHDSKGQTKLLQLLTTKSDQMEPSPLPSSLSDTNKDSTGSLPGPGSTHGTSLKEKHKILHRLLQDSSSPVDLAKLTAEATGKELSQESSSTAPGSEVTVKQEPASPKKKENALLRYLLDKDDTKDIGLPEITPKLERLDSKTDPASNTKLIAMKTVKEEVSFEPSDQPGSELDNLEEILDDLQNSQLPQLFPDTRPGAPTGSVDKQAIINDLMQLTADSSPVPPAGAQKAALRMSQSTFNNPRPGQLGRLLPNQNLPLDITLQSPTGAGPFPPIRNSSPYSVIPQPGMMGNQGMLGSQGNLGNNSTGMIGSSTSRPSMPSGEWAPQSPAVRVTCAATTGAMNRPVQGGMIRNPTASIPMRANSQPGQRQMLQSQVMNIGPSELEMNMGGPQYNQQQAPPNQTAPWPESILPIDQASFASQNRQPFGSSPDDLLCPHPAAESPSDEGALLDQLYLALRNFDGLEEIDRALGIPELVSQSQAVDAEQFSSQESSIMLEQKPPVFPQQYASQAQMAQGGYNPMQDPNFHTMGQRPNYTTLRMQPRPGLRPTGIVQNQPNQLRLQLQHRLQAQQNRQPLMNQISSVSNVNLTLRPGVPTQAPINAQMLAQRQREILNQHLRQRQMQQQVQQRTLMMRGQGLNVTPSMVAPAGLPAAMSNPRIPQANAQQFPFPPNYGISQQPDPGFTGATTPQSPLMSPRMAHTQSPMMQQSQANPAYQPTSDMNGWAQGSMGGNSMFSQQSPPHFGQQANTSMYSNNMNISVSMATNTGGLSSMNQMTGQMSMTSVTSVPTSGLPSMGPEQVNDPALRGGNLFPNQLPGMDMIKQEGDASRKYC
UniProt O95166: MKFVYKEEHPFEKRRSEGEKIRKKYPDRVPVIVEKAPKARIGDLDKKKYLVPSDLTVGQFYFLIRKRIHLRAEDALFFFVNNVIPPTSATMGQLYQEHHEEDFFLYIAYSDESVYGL
UniProt P60520: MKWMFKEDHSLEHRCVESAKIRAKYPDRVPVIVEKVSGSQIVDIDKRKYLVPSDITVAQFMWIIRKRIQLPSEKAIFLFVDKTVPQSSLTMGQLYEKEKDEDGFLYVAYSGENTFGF

Experiment [2] has as its target FLAG-tagged TIF2 (wild type, mouse) (mouse) (UniProt Q61026). Described as above.

Results are given in words; binding and its absence hold for the method and conditions named. In cells and extracts the contact can be indirect. Some results given as binding are weak or reduced against the parent protein; the word gives no strength.

In PMC7434891 one finds binding data, which are given here for two substances.

On to GABARAP (from UniProt O95166 1-117), for which the binding entry in experiment [1] and in experiment [2] was “binds” throughout.

GATE16 (from UniProt P60520 1-117): the binding entry in experiment [1] and in experiment [2] was “binds” each time.
